The other results are listed elsewhere or left out. Further columns of the screen follow, without active or inactive calls. Most of these compounds were active or inconclusive in the main read-out, so they are no random draw.

A short description of this experiment: dynein cargo transport inhibitors, GR-EGFP translocation, confirmation, imaging, high-content imaging, GR-EGFP cells (AID 463116). Particulars: 3617.4 GR-EGFP nuclear translocation imaging, dexamethasone-induced; measured here: cell count per field; at 20 µM.
Compound `COc1ccc(C(=O)/C=C/C(=O)N(CC(=O)NC2CCCCC2)Cc2ccccc2OC)c(O)c1` came in with a z-score of -0.682.
Under `O=[N+]([O-])c1ccc(N/N=C/c2c[nH]c3ccccc23)cc1` stands -0.086; under `CCN(CC)S(=O)(=O)c1cc(NC(=O)Cn2ncc(Cl)c(Cl)c2=O)ccc1C`, 0.436; under `Cc1ccc(S(=O)(=O)N[C@@H](Cc2ccccc2)C(=O)CCl)cc1`, -2.38.
Under `O=C(/C=C/NNC(=O)c1ccc(Cl)cc1)c1ccccc1` stands 0.4; under `COc1ccc(NC(=O)/C(Cl)=C(/Cl)S(=O)Cc2ccccc2)cn1` (stereo not given), 0.425; under `N#Cc1c(C(F)(F)F)cc(-c2ccccc2)nc1SCc1nc(N)nc(N2CCOCC2)n1`, 0.265.
In turn, `CCOC(=O)C(NC(=O)c1cccc(Cl)c1)(Nc1sc2c(c1C(N)=O)CCC2)C(F)(F)F` (stereo not given) registered a z-score of 0.0765.
The value for `COc1ccc(C(=O)/C=C/C(=O)N(CC(=O)NC2CCCCC2)Cc2ccccc2)c(O)c1` was -1.02; that for `CCCCc1c(C)c(C#N)c2nc3ccccc3n2c1Cl` was 0.529; that for `CCOC(=O)CSC1=NC(=O)/C(=C\c2ccc(Cl)cc2)S1` was 0.43.
The value for `COc1ccc(C(=O)/C=C/C(=O)N(CC(=O)NC2CCCCC2)CC2CCCO2)c(O)c1` (stereo not given) was -0.0941; that for `Cc1cc(C(=O)CCl)c(C)n1-c1cccc(S(=O)(=O)N2CCOCC2)c1` was -0.642.
`CCC1=C2CC[C@H]3C(=O)N(c4ccccc4)C(=O)[C@H]3[C@H]2[C@@]2(C)C(=NCc3ccccc3)OC(=O)N2C1=O`: the z-score came to 0.202.
The compound `Cc1cc(C)nc(S/C=C/C(=O)c2ccccc2F)n1` returned a z-score of 0.675.
`Cc1ccc(NC(=O)C(=Cc2ccc(C(=O)O)cc2)C(=O)Nc2ccc(C)cc2C)c(C)c1`: the z-score stood at 0.227.
Under `Cc1[nH]n(-c2ncc(-c3ccc(Cl)cc3)s2)c(=O)c1C(c1ccc(Cl)cc1)C(C#N)C#N` (stereo not given) stands -0.0015.
The value for `CCC(=O)OCCNc1cc(Sc2nc3ccccc3[nH]2)c2nonc2c1[N+](=O)[O-]` was -3.01; that for `COC(C/C=C/C(=O)COCc1ccccc1)OC` was -0.793; that for `CC(C)C[C@H](N)c1nnc(S(=O)(=O)Cc2cccc(F)c2)o1` was -0.677.
The value for `CCOC(=O)c1cnc2c(F)ccc(F)c2c1Sc1ccccc1` was -0.555.
The compound `Cc1ccc(-n2nnnc2C(Cl)c2nnnn2-c2ccc(C)cc2)cc1` gave a z-score of 0.341.
The compound `Cc1ccc(/C=C/C(=O)Nc2ccc(Oc3ccccc3)cc2)o1` displayed a z-score of 0.273.
Under `CC1=CC(C)(C)Nc2ccc(OC(=O)c3cccnc3)cc21` stands 0.309.
Take `Cc1[nH]c2ccccc2c(=O)c1C(=O)/C=C/c1ccccc1`: the z-score was -0.29.
For `O=C1/C(=C/c2ccc(N3CCCC3)cc2)NC(=S)N1C1CC1`, the z-score stood at 0.331.
On to `O=C(c1ccc(Cl)cc1)c1c[nH]c(C(=O)C(Cl)(Cl)Cl)c1`, for which the z-score is -0.174.
With `CCOC(=O)C(=Cc1ccc(F)cc1)C(=O)OCC`, the z-score amounted to 0.507.
Under `CC[n+]1c(/C=C/C=C/N(C(C)=O)c2ccccc2)sc2cc(OC)ccc21` stands -0.374.
The value for `COc1cccc(C2CC(C(F)(F)F)n3nc(C(=O)NCc4cccnc4)cc3N2)c1` (stereo not given) was -0.0577; that for `CCN1C/C(=C/c2ccc(OC)c(O)c2)C(=O)/C(=C/c2ccc(OC)c(O)c2)C1` was 0.342; that for `CCOC(=O)CCSc1nc(C)cc(C(F)(F)F)c1C#N` was 0.218.
Under `Cc1ccc(-c2csc(NC(=O)Cc3ccc(F)cc3)n2)o1` stands 0.226; under `CCNc1ccc(Br)cc(C(=O)/C=C/c2ccc(Cl)cc2Cl)c1=O`, 0.277; under `O=C(c1coc(=O)c(Br)c1)N1CCC(C(O)(c2ccccc2)c2ccccc2)CC1`, 0.845.
In turn, `CC(=O)Nc1cccc(C(=O)/C=C/c2ccc(F)cc2)c1` displayed a z-score of 0.222.
The value for `COc1ccc2c(c1)c1ccc3c(c1n2C)C(=O)C=CC3=O` was 0.191.
The value for `CCOC(=O)/C(=C\c1cn(C)c2ccccc12)[N+](=O)[O-]` was 0.0614; that for `CCOC(=O)c1c(NC(=O)CCl)sc(CN(C)C)c1-c1ccccc1` was 0.31; that for `CCOCCCNC1=C(Cl)C(=O)c2ccccc2C1=O` was -0.582.
Under `CCCCc1cc(O)c(CCCC)c(O)c1` stands 0.231; under `O=[N+]([O-])/C=C/c1cn(Cc2ccc(F)cc2)c2ccccc12`, -0.341; under `O=C(CN1CCN(S(=O)(=O)c2ccccc2[N+](=O)[O-])CC1)NC(=O)NCc1ccco1`, 0.0215.
For the compound `COCCCNc1nc2c(-c3ccc(Cl)cc3)nnn2c2ccccc12`, the z-score was 0.00439.
Under `Clc1ncnc2scc(-c3ccc(Br)cc3)c12` stands 0.679.
`CC(C)CN1C(=O)/C(=C/c2c(N3CCc4ccccc4C3)nc3ccccn3c2=O)SC1=S` registered a z-score of 0.517.
Under `CNc1ccc(/C=C2\CSc3ccccc3C2=O)cc1[N+](=O)[O-]` stands 0.818.
On to `CN1CC=C2C(C#N)=C(N)C(C#N)(C#N)C(Cc3ccccc3)C2C1` (stereo not given), for which the z-score is -0.0979.
The value for `CCN1CC=C2C(C#N)=C(N)C(C#N)(C#N)C(CCc3ccccc3)C2C1` (stereo not given) was 0.793.
The value for `Cc1cc(C)cc(OC(=O)CS(=O)c2ccc(C(F)(F)F)cc2[N+](=O)[O-])c1` (stereo not given) was -0.638; that for `CCCN1C(=O)/C(=C/c2c(NCCCOC(C)C)nc3c(C)cccn3c2=O)SC1=S` was -0.105; that for `Cc1ccc2nc(SCC(=O)Nc3ccc(C(N)=O)cc3)[nH]c2c1` was 0.41.
Under `N#CC(C#N)=C1C=CC=CN1/C(=C\c1ccco1)C(=O)c1ccccc1` stands 0.143; under `CN(C(=O)COC(=O)c1nc(Cl)c(Cl)c(Cl)c1Cl)C1CCS(=O)(=O)C1` (stereo not given), 0.378.
`COc1cc(/C=C/C(=O)c2ccc(C)c([N+](=O)[O-])c2)cc(OC)c1O` had a z-score of -0.0641.
Under `Cc1nc([N+](=O)[O-])c(Br)n1CC(=O)c1cccc([N+](=O)[O-])c1` stands 0.429; under `Cc1sc(NC(=O)c2sc3nc4c(C)cccc4cc3c2N)c(C#N)c1C`, 0.601.
Under `CCOC(=O)c1cn(-c2c(Cl)cccc2Cl)c2cc(Cl)c([N+](=O)[O-])cc2c1=O` stands 0.246; under `Clc1ccc(-c2nnc(Sc3nc4ccccc4o3)c3ccccc23)cc1`, 0.65; under `N#CC(C#N)=C1C=CC=CN1/C(=C\c1ccco1)C(=O)c1ccc(Br)cc1`, 0.476.
As for `CCCNC(=O)c1nnsc1S(=O)c1ccc(Cl)cc1` (stereo not given), the z-score was -0.87.
Under `CCOC(=O)COc1ccc(/C=C/[N+](=O)[O-])c(OCC(=O)OCC)c1` stands 0.525.
Under `CC1=CC(=Nc2c(C)n(C)n(-c3ccccc3)c2=O)C=CC1=O` stands 0.551; under `CCNc1ccc(Br)cc(C(=O)/C=C/c2c(Cl)cccc2Cl)c1=O`, -0.403; under `Cc1ccccc1CS(=O)(=O)c1nnc([C@H](Cc2ccccc2)NC(=O)OC(C)(C)C)o1`, -0.405.

For the origin of these results see PubChem BioAssay AID463116 (University of Pittsburgh Molecular Library Screening Center, 2010).
